# Data as given in PubChem BioAssay AID504786 (Drosophila RNAi Screening Center, 2011)
# Screen: 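Positive regulators of HIF-driven reporter output in Drosophila cells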 (primary screen)
# System: Drosophila S2 cells with a stable HIF luciferase reporter
# Reagents: long dsRNA against Drosophila genes, about 0.2 µg dsRNA per well of a 384-well plate
# Timing: three days of knock-down, then 20 h of DFO before reading
# Challenge: desferrioxamine (DFO) at 100 µM, an iron chelator that mimics hypoxia, for 20 h
# Detection: 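Firefly luciferase driven by the mouse ldh-a hypoxia-response element, measured after 20 h of 100 µM DFO; z-scores per plate, higher means more signal lost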
# Direction: z-score: higher = stronger loss of HIF reporter signal
# In all, the deposit lists about 21,000 reagents; shown is an unselected part of those that have a named target and a result. 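Primary screen; positive scores mean lost reporter signal, so the sign may be inverted from the usual convention.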 Names joined by + are all predicted targets of the reagent. No sequences are given here.
The first 8 entries as a preview:
target gene,dsRNA,"z-score, replicate 1","z-score, replicate 2","z-score, replicate 3","z-score, replicate 4"
Srpk79D,DRSC11668,-0.3,-0.1,,
Srpk79D,DRSC11856,-0.3,1.3,,
COX6AL2,DRSC10082,-0.1,0.4,,
Naa20A,DRSC19579,-0.2,0.3,,
Oat,DRSC11043,-0.3,-0.3,,
DIP-kappa,DRSC01336,-0.3,0.1,,
DIP-kappa,DRSC01337,0.3,-0.1,,
CG13474,DRSC10018,0,-0.8,,

Main list, from the first entry:
target gene,dsRNA,"z-score, replicate 1","z-score, replicate 2","z-score, replicate 3","z-score, replicate 4"
Srpk79D,DRSC11668,-0.3,-0.1,,
Srpk79D,DRSC11856,-0.3,1.3,,
COX6AL2,DRSC10082,-0.1,0.4,,
Naa20A,DRSC19579,-0.2,0.3,,
Oat,DRSC11043,-0.3,-0.3,,
DIP-kappa,DRSC01336,-0.3,0.1,,
DIP-kappa,DRSC01337,0.3,-0.1,,
CG13474,DRSC10018,0,-0.8,,
Syx16,DRSC20507,-0.3,-0.3,,
CG17145,DRSC10247,-0.2,-0.4,,
CG1236,DRSC12203,-0.4,-0.1,,
CG11788,DRSC06084,-0.3,-0.5,,
RyR,DRSC07543,-0.3,-0.4,,
CG13676,DRSC10035,-0.1,0.1,,
CG11249,DRSC11645,-0.3,0.1,,
Dek,DRSC07418,-0.2,0.3,,
Mms19,DRSC12188,-0.4,-0.2,,
Pkc53E,DRSC05636,-0.1,-0.2,,
Pkc53E,DRSC07510,-0.3,-0.3,,
Swip-1,DRSC02083,-0.2,0.1,,
Swip-1,DRSC02084,-0.2,-0.2,,
Kyat,DRSC16147,-0.2,-0.1,,
Su(var)3-9,DRSC14484,-0.2,0.3,,
CG7714,DRSC16300,-1.1,-0.9,,
CG5089,DRSC06914,-0.2,0,,
CG32182,DRSC09508,-0.2,-0.2,,
MED20,DRSC03463,-0.5,-1.2,,
CG9928,DRSC03274,-0.3,-0.1,,
CG5708,DRSC02881,-0.2,-0.2,,
prage,DRSC17957,1,-0.4,,
prage,DRSC17958,1.2,0.2,,
prage,DRSC18490,0,-0.7,,
prage,DRSC18497,-0.3,-0.8,,
AGO1,DRSC05912,6.1,2.6,,
CG15617,DRSC06570,-0.3,-0.1,,
Ugt49B1,DRSC04461,-0.1,-0.2,,
Cyp313a5,DRSC16628,-0.3,-0.7,,
CG13717 (retired record),DRSC08116,-0.7,-0.5,,
CG13717 (retired record),DRSC08324,-0.5,-0.9,,
CG13717 (retired record),DRSC08326,1.1,1,,
OtopLb,DRSC00594,-0.4,-0.6,,
Ddrgk1,DRSC15897,-0.3,-0.1,,
ovo,DRSC18050,-0.3,0.3,,
ovo,DRSC18812,-0.3,0,,
Ac13E,DRSC19325,-0.4,0,,
akirin,DRSC11000,3.3,3.1,,
wwk,DRSC01941,-0.3,-0.1,,
Ppcs,DRSC14127,-0.2,-0.2,,
CG33270,DRSC10584,-0.2,-0.5,,
CG5302 (retired record),DRSC15764,-0.4,0,,
CG5302 (retired record),DRSC15765,-0.5,-0.4,,
senju,DRSC02366,-0.3,-0.3,,
Tpl94D,DRSC13593,0.5,-0.1,,
CG13813,DRSC10068,-0.2,-0.2,,
SmB,DRSC03437,5.9,5.3,,
CG30095,DRSC07175,-0.3,-0.4,,
CG4956,DRSC15683,-0.2,-0.4,,
CG31098,DRSC14259,-0.4,-0.6,,
CG17776,DRSC18136,-0.4,-0.3,,
mtDNA-helicase,DRSC02912,-0.2,-0.3,,
CG12491 + CG34105,DRSC04008,-0.2,-0.2,,
CG12491 + CG34105,DRSC04124,-0.3,-0.2,,
Vsp37A,DRSC18794,-0.2,-0.5,,
CG13053,DRSC09934,-0.2,0.5,,
CG15439,DRSC00453,-0.1,-0.2,,
link,DRSC06368,0.5,1,,
CG13000,DRSC19519,0.3,0.1,,
CG43066,DRSC06927,-0.2,0,0,-0.1
Wdr59,DRSC02771,-0.4,-0.6,,
CG8539,DRSC10988,-0.3,-0.6,,
ScsbetaA,DRSC14446,-0.3,-0.3,,
fzr2,DRSC04280,-0.1,-0.5,,
Tsp42Ed,DRSC05940,-0.3,0.1,,
Dh44,DRSC12747,0.1,0.5,,
Dh44,DRSC16409,-0.3,-0.6,,
AcCoAS,DRSC11477,-0.1,-0.7,-1,-0.6
AcCoAS,DRSC11603,-0.3,-0.3,,
CG15024,DRSC08478,-0.4,-0.5,,
CG17270,DRSC15209,-0.3,-0.6,,
CROT,DRSC14518,-0.1,0.1,,
CROT,DRSC14519,-0.6,-0.2,,
CG13073,DRSC09956,-0.4,0,,
CG32686,DRSC17645,0.3,-0.1,,
